From patent US7335645B2 (Probiodrug AG, priority 1999, dated 2008)

Assay: general procedure: solution-phase peptide synthesis
Settings: TFA salt

Substance | step yield (coupling step) | step yield (late stage modification step)
Boc-Glu(Gly3)-Thia | 49% | –
Boc-Glu(Gly5)-Thia | 86% | –
H-Glu(Gly3)Thia *TFA | – | 94%
H-Glu(Gly5)Thia *TFA | – | 98%
